# Results from the supplement of paper PMC8728848.
# This is one part of the list.
# B1: XTP3-B-MRH1 (Homo sapiens), Q96DZ1 (protein)
# chain: LLEPLFKQSSCSYRIESYWTYEVCHGKHIRQYHEEKETGQKINIHEYYLGNMLAKNLLFEKEREAEEKEKSNEIPTKNIEGQMTPYYPVGMGNGTPCSLKQNRPRSSTVMYICHPESKHEILSVAEVTTCEYEVVILTPLLCSHPKYRFRA
# Assays:
# Experiment in all cases: glycan array binding signal (z-score within array); higher = stronger binding
# Conditions in all cases: glycan notation: IUPAC condensed, linker removed
# [1] = molecular target: GlcNAc(b1-2)[GlcNAc(b1-4)]Man(a1-3)[GlcNAc(b1-4)][GlcNAc(b1-2)Man(a1-6)]Man(b1-4)GlcNAc(b1-4)GlcNAc
# How it was run: (§1)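 The binding signal is a Z-score computed within each array and averaged over linkers. Arrays of the same protein sequence at different concentrations or buffers were also averaged together. Data originate from 3228 arrays in the Consortium for Functional Glycomics database, kept only where the protein sequence was available.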
# [2] = molecular target: GlcNAc(b1-2)[GlcNAc(b1-4)]Man(a1-3)[GlcNAc(b1-4)][GlcNAc(b1-2)[GlcNAc(b1-6)]Man(a1-6)]Man(b1-4)GlcNAc(b1-4)GlcNAc
# How it was run: as §1
# [3] = molecular target: GlcNAc(b1-2)[GlcNAc(b1-4)]Man(a1-3)[GlcNAc(b1-4)][GlcNAc(b1-2)[GlcNAc(b1-6)]Man(a1-6)]Man(b1-4)GlcNAc(b1-4)[Fuc(a1-6)]GlcNAc
# How it was run: as §1
# [4] = molecular target: GlcNAc(b1-2)[GlcNAc(b1-6)]Man(a1-6)[GlcNAc(b1-2)Man(a1-3)]Man(b1-4)GlcNAc(b1-4)GlcNAc
# How it was run: as §1
# [5] = molecular target: GlcNAc(b1-2)[GlcNAc(b1-6)]Man(a1-6)[GlcNAc(b1-2)Man(a1-3)]Man(b1-4)GlcNAc(b1-4)[Fuc(a1-6)]GlcNAc
# How it was run: as §1
# [6] = molecular target: GlcNAc(b1-2)[GlcNAc(b1-6)]Man(a1-6)[GlcNAc(b1-4)][GlcNAc(b1-2)Man(a1-3)]Man(b1-4)GlcNAc(b1-4)GlcNAc
# How it was run: as §1
# GlcNAc(b1-3)Fuc = molecular target: GlcNAc(b1-3)Fuc
# How it was run: as §1
# GlcNAc(b1-3)Gal = molecular target: GlcNAc(b1-3)Gal
# How it was run: as §1
# [7] = molecular target: GlcNAc(b1-3)Gal(b1-3)GalNAc
# How it was run: as §1
# GlcNAc(b1-3)Gal(b1-4)Glc = molecular target: GlcNAc(b1-3)Gal(b1-4)Glc
# How it was run: as §1
# [8] = molecular target: GlcNAc(b1-3)Gal(b1-4)GlcNAc
# How it was run: as §1
# [9] = molecular target: GlcNAc(b1-3)Gal(b1-4)GlcNAc(b1-2)Man(a1-3)[GlcNAc(b1-3)Gal(b1-4)GlcNAc(b1-2)Man(a1-6)]Man(b1-4)GlcNAc(b1-4)GlcNAc
# How it was run: as §1
# [10] = molecular target: GlcNAc(b1-3)Gal(b1-4)GlcNAc(b1-2)Man(a1-3)[GlcNAc(b1-3)Gal(b1-4)GlcNAc(b1-2)Man(a1-6)]Man(b1-4)GlcNAc(b1-4)[Fuc(a1-6)]GlcNAc
# How it was run: as §1
# [11] = molecular target: GlcNAc(b1-3)Gal(b1-4)GlcNAc(b1-2)[GlcNAc(b1-3)Gal(b1-4)GlcNAc(b1-6)]Man(a1-6)[GlcNAc(b1-3)Gal(b1-4)GlcNAc(b1-2)Man(a1-3)]Man(b1-4)GlcNAc(b1-4)GlcNAc
# How it was run: as §1
# [12] = molecular target: GlcNAc(b1-3)Gal(b1-4)GlcNAc(b1-3)Gal(b1-4)GlcNAc
# How it was run: as §1
# [13] = molecular target: GlcNAc(b1-3)Gal(b1-4)GlcNAc(b1-3)Gal(b1-4)GlcNAc(b1-2)Man(a1-3)[GlcNAc(b1-3)Gal(b1-4)GlcNAc(b1-3)Gal(b1-4)GlcNAc(b1-2)Man(a1-6)]Man(b1-4)GlcNAc(b1-4)GlcNAc
# How it was run: as §1
# [14] = molecular target: GlcNAc(b1-3)Gal(b1-4)GlcNAc(b1-3)Gal(b1-4)GlcNAc(b1-2)Man(a1-3)[GlcNAc(b1-3)Gal(b1-4)GlcNAc(b1-3)Gal(b1-4)GlcNAc(b1-2)Man(a1-6)]Man(b1-4)GlcNAc(b1-4)[Fuc(a1-6)]GlcNAc
# How it was run: as §1
# [15] = molecular target: GlcNAc(b1-3)Gal(b1-4)GlcNAc(b1-3)Gal(b1-4)GlcNAc(b1-2)[GlcNAc(b1-3)Gal(b1-4)GlcNAc(b1-3)Gal(b1-4)GlcNAc(b1-6)]Man(a1-6)[GlcNAc(b1-3)Gal(b1-4)GlcNAc(b1-3)Gal(b1-4)GlcNAc(b1-2)Man(a1-3)]Man(b1-4)GlcNAc(b1-4)[Fuc(a1-6)]GlcNAc
# How it was run: as §1
# [16] = molecular target: GlcNAc(b1-3)Gal(b1-4)GlcNAc(b1-3)Gal(b1-4)GlcNAc(b1-3)Gal(b1-4)GlcNAc(b1-2)Man(a1-3)[GlcNAc(b1-3)Gal(b1-4)GlcNAc(b1-3)Gal(b1-4)GlcNAc(b1-3)Gal(b1-4)GlcNAc(b1-2)Man(a1-6)]Man(b1-4)GlcNAc(b1-4)GlcNAc
# How it was run: as §1
# [17] = molecular target: GlcNAc(b1-3)Gal(b1-4)GlcNAc(b1-3)Gal(b1-4)GlcNAc(b1-3)Gal(b1-4)GlcNAc(b1-2)Man(a1-3)[GlcNAc(b1-3)Gal(b1-4)GlcNAc(b1-3)Gal(b1-4)GlcNAc(b1-3)Gal(b1-4)GlcNAc(b1-2)Man(a1-6)]Man(b1-4)GlcNAc(b1-4)[Fuc(a1-6)]GlcNAc
# How it was run: as §1
# [18] = molecular target: GlcNAc(b1-3)Gal(b1-4)GlcNAc(b1-3)Gal(b1-4)GlcNAc(b1-3)Gal(b1-4)GlcNAc(b1-2)[GlcNAc(b1-3)Gal(b1-4)GlcNAc(b1-3)Gal(b1-4)GlcNAc(b1-3)Gal(b1-4)GlcNAc(b1-6)]Man(a1-6)[GlcNAc(b1-3)Gal(b1-4)GlcNAc(b1-3)Gal(b1-4)GlcNAc(b1-3)Gal(b1-4)GlcNAc(b1-2)Man(a1-3)]Man(b1-4)GlcNAc(b1-4)[Fuc(a1-6)]GlcNAc
# How it was run: as §1
# [19] = molecular target: GlcNAc(b1-3)Gal(b1-4)GlcNAc(b1-3)Gal(b1-4)GlcNAc(b1-3)Gal(b1-4)GlcNAc(b1-3)Gal(b1-4)GlcNAc(b1-2)Man(a1-3)[GlcNAc(b1-3)Gal(b1-4)GlcNAc(b1-3)Gal(b1-4)GlcNAc(b1-3)Gal(b1-4)GlcNAc(b1-3)Gal(b1-4)GlcNAc(b1-2)Man(a1-6)]Man(b1-4)GlcNAc(b1-4)GlcNAc
# How it was run: as §1
# [20] = molecular target: GlcNAc(b1-3)Gal(b1-4)GlcNAc(b1-3)Gal(b1-4)GlcNAc(b1-3)Gal(b1-4)GlcNAc(b1-3)Gal(b1-4)GlcNAc(b1-2)Man(a1-3)[GlcNAc(b1-3)Gal(b1-4)GlcNAc(b1-3)Gal(b1-4)GlcNAc(b1-3)Gal(b1-4)GlcNAc(b1-3)Gal(b1-4)GlcNAc(b1-2)Man(a1-6)]Man(b1-4)GlcNAc(b1-4)[Fuc(a1-6)]GlcNAc
# How it was run: as §1
binder,measurement,setting,value
B1,glycan array binding signal (z-score),[1],-0.731
same,glycan array binding signal (z-score),[2],-0.739
same,glycan array binding signal (z-score),[3],-0.423
same,glycan array binding signal (z-score),[4],-0.739
same,glycan array binding signal (z-score),[5],-0.964
same,glycan array binding signal (z-score),[6],-0.788
same,glycan array binding signal (z-score),GlcNAc(b1-3)Fuc,0.326
same,glycan array binding signal (z-score),GlcNAc(b1-3)Gal,-0.445
same,glycan array binding signal (z-score),[7],0.121
same,glycan array binding signal (z-score),GlcNAc(b1-3)Gal(b1-4)Glc,-0.891
same,glycan array binding signal (z-score),[8],-0.824
same,glycan array binding signal (z-score),[9],-0.918
same,glycan array binding signal (z-score),[10],-0.235
same,glycan array binding signal (z-score),[11],-0.432
same,glycan array binding signal (z-score),[12],0.29
same,glycan array binding signal (z-score),[13],2.48
same,glycan array binding signal (z-score),[14],-0.373
same,glycan array binding signal (z-score),[15],1.51
same,glycan array binding signal (z-score),[16],0.836
same,glycan array binding signal (z-score),[17],4.18
same,glycan array binding signal (z-score),[18],0.551
same,glycan array binding signal (z-score),[19],0.927
same,glycan array binding signal (z-score),[20],1.17

# Reprinted at random: 2 entries already listed, in no set order.
binder,measurement,setting,value
B1,glycan array binding signal (z-score),GlcNAc(b1-3)Fuc,0.326
same,glycan array binding signal (z-score),[7],0.121
